Assay results as given in the supplement of paper PMC11732987, “Enantioselective OTUD7B fragment discovery through chemoproteomics screening and high-throughput optimisation” (Communications Chemistry, 2025).
The list shows a part of the results. The data scatter; read single values as rough.

Tests used:
[1] = compound: ClCC(=O)N[C@@H]1CCCc2ccccc12; experiment: log2 mean competition ratio of IA-DTB cysteine labelling (DMSO/compound) (log2 ratio); higher = stronger cysteine engagement by compound; conditions: treatment time: 4 h, cell line lysate: HEK293T
Procedure: (§1)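 IA-DTB competitive cysteine chemoproteomics in HEK293T RIPA lysate. Lysates were treated with compound 29 or 30 at 50 or 200 µM for 4 h, then IA-DTB (500 µM, 1 h), trypsin-digested, NeutrAvidin-enriched and analysed by diaPASEF. Competition ratio = intensity DMSO / intensity compound (n=4 treated, n=64 DMSO); binding: mean log2 CR ≥ 1 and p ≤ 0.05 plus QC filters. Target is the cysteine site.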

[2] = compound: ClCC(=O)N[C@H]1CCCc2ccccc12; experiment: as above; conditions: treatment time: 4 h, cell line lysate: HEK293T
Procedure: as §1

Target | log2 mean competition ratio ([1]; 50 µM) | log2 mean competition ratio ([1]; 200 µM) | log2 mean competition ratio ([2]; 50 µM) | log2 mean competition ratio ([2]; 200 µM)
NGLY1 C21 (UniProt Q96IV0) | -0.647 | -0.165 | -0.711 | 0.0857
NKRF C242 (UniProt O15226) | 0.247 | -0.143 | -0.0527 | 0.02
NEU3 C415 (UniProt Q9UQ49) | -0.247 | 0.151 | -0.331 | 0.0639
NAT1 C148 (UniProt P18440) | 0.137 | -0.0848 | 0.0493 | -0.265
NDUFA10 C67 (UniProt O95299) | -0.0337 | 0.139 | 0.0761 | 0.164
NCOR1 C994 (UniProt O75376) | 0.0223 | 0.155 | 0.12 | 0.434
NF1 C2371 (UniProt P21359) | 0.104 | 0.19 | -0.503 | 0.0104
NELFA C471 (UniProt Q9H3P2) | -0.157 | -0.0873 | 0.08 | -0.0797
NF1 C1711 (UniProt P21359) | -0.21 | -0.0908 | -0.0263 | -0.124
NHSL1 C524 (UniProt Q5SYE7) | -0.026 | 0.318 | 0.169 | 0.308
NCDN C292 (UniProt Q9UBB6) | 0.118 | -0.00768 | 0.174 | -0.154
NCBP2AS2 C63 (UniProt Q69YL0) | 0.307 | 0.0972 | 0.0389 | 0.105
NCOR1 C1274 (UniProt O75376) | -0.154 | 0.14 | -0.0516 | 0.264
NDRG1 C49 (UniProt Q92597) | -0.306 | -0.459 | 0.961 | -0.714
NCKIPSD C700 (UniProt Q9NZQ3) | -0.107 | 0.252 | -0.0848 | 0.0575
NHSL1 C162 (UniProt Q5SYE7) | -0.0533 | 0.0721 | -0.38 | -0.144
NECAP1 C162 (UniProt Q8NC96) | 0.107 | -0.0342 | 0.0889 | -0.189
NCOA7 C439 (UniProt Q8NI08) | -0.48 | 0.218 | -0.427 | 0.0952
NOCT C136 (UniProt Q9UK39) | -0.0131 | -0.173 | -0.289 | -0.165
NDUFA4 C44 (UniProt O00483) | -0.0894 | -0.27 | 0.0226 | -0.0642
NF1 C509 (UniProt P21359) | -0.158 | -0.222 | 0.25 | -0.0958
NOP14 C580 (UniProt P78316) | 0.318 | -0.278 | -0.14 | -0.0737
NAV1 C1651 (UniProt Q8NEY1) | -0.104 | -0.0747 | -0.106 | -0.0926
NEFL C322 | -0.232 | 0.00049 | 0.0968 | 0.129
NKTR C393 (UniProt P30414) | -0.111 | 0.18 | 0.0635 | 0.35
NDC80 C449 (UniProt O14777) | 0.377 | 0.0558 | 0.066 | 0.0276

Target | log2 mean competition ratio ([1]; 50 µM) | log2 mean competition ratio ([1]; 200 µM) | log2 mean competition ratio ([2]; 50 µM) | log2 mean competition ratio ([2]; 200 µM)
NDUFV1 C142 | 0.0192 | -0.0991 | -0.205 | -0.153
NFS1 C381 (UniProt Q9Y697) | 0.208 | -0.117 | 0.336 | -0.165
NIPBL C1795 (UniProt Q6KC79) | -0.154 | 0.0185 | -0.163 | 0.0745
NOL10 C55 (UniProt Q9BSC4) | – | -0.474 | -0.277 | 0.351
NCAPG2 C401 (UniProt Q86XI2) | – | – | 0.454 | 0.138
NAV1 C1446 (UniProt Q8NEY1) | – | – | 0.118 | 0.386
NIBAN2 C512 (UniProt Q96TA1) | – | – | 0.0634 | 0.195
NDUFS6 C87 (UniProt O75380) | 0.0257 | 0.146 | -0.176 | 0.14
NDUFS2 C347 (UniProt O75306) | – | – | 1.01 | 0.362
NCAPD2 C1000 (UniProt Q15021) | 0.248 | -0.103 | -0.188 | -0.0587
NF1 C1032 (UniProt P21359) | -0.119 | 0.428 | 0.00729 | 0.239
NFKBIB C6 (UniProt Q15653) | -0.0937 | 0.378 | 0.0643 | 0.552
NIN C1619 (UniProt Q8N4C6) | -0.0725 | 0.0452 | 0.169 | 0.143
NEK6 C264 (UniProt Q9HC98) | – | – | -0.421 | 0.00959
NLRX1 C310 (UniProt Q86UT6) | – | -0.0529 | – | 0.0472
NFATC4 C350 (UniProt Q14934) | – | – | -0.0235 | -0.173
NEK6 C40 (UniProt Q9HC98) | – | – | -0.475 | -0.123
NKD1 C112 | – | – | 0.00957 | -0.0405
NDUFB7 C80 (UniProt P17568) | – | 0.338 | – | 0.453
NNT C308 (UniProt Q13423) | – | – | -0.119 | -0.157
NET1 C293 (UniProt Q7Z628) | – | – | -0.113 | -0.00324
NCOA1 C831 (UniProt Q15788) | 0.127 | -0.281 | 0.13 | -0.117
NCAPD3 C453 (UniProt P42695) | – | – | 0.142 | -0.00798
NID1 C1135 | – | – | -0.438 | -0.101
NCBP1 C332 (UniProt Q09161) | – | – | -0.395 | -0.282
NATD1 C17 (UniProt Q8N6N6) | 0.145 | 0.0084 | -0.0382 | -0.0298

Four records picked at random from those above:
Target | log2 mean competition ratio ([1]; 50 µM) | log2 mean competition ratio ([1]; 200 µM) | log2 mean competition ratio ([2]; 50 µM) | log2 mean competition ratio ([2]; 200 µM)
NFATC4 C350 (UniProt Q14934) | – | – | -0.0235 | -0.173
NAV1 C1446 (UniProt Q8NEY1) | – | – | 0.118 | 0.386
NEK6 C264 (UniProt Q9HC98) | – | – | -0.421 | 0.00959
NFKBIB C6 (UniProt Q15653) | -0.0937 | 0.378 | 0.0643 | 0.552

Further results:

Target | log2 mean competition ratio ([1]; 50 µM) | log2 mean competition ratio ([1]; 200 µM) | log2 mean competition ratio ([2]; 50 µM) | log2 mean competition ratio ([2]; 200 µM)
NDST2 C585 (UniProt P52849) | -0.325 | – | -0.676 | 0.203
NDUFV1 C187 | – | – | 0.483 | -0.073
NOL8 C517 (UniProt Q76FK4) | – | – | -0.0741 | 0.153
NDUFS5 C66 (UniProt O43920) | – | -0.0691 | -0.147 | -0.205
NBN C323 (UniProt O60934) | – | – | -0.201 | -0.36
NEIL2 C291 (UniProt Q969S2) | – | – | 0.0723 | 0.204
NCBP1 C409 (UniProt Q09161) | – | – | -0.206 | 0.023
NAV2 C1288 (UniProt Q8IVL1) | – | – | -0.207 | -0.605
NOP58 C205 (UniProt Q9Y2X3) | 0.293 | 0.17 | 0.329 | 0.252
NELFB C235 (UniProt Q8WX92) | – | – | -0.0109 | -0.242
NEDD4;NEDD4L C1286;(C942) | – | – | 0.489 | -0.126
NLGN1 C784 | – | – | -0.875 | -0.0895
NF1 C434 (UniProt P21359) | 0.14 | 0.0419 | -0.0151 | 0.0217
NCK2 C297 (UniProt O43639) | – | – | -0.105 | 0.159
NOA1 C364 (UniProt Q8NC60) | – | – | 0.12 | -0.027
NDUFAF4 C87 (UniProt Q9P032) | – | – | -0.134 | -0.0449
NCAPG C667 (UniProt Q9BPX3) | – | – | 0.0335 | -0.212
NOL8 C630 (UniProt Q76FK4) | – | – | 0.362 | -0.192
NBAS C897 (UniProt A2RRP1) | – | – | -0.133 | -0.0827
NIPBL C2374 (UniProt Q6KC79) | – | – | -0.176 | -0.0478
NEURL4 C1208 (UniProt Q96JN8) | – | – | 0.274 | 0.0414
NEIL3 C579 | – | – | -0.18 | 0.229
NDUFAF6 C216 (UniProt Q330K2) | – | – | 0.786 | -0.174
NCAPD2 C596 (UniProt Q15021) | – | – | -0.221 | 0.536
NNT C1073 (UniProt Q13423) | – | – | -0.0418 | 0.145
NFX1 C661 (UniProt Q12986) | – | – | 0.0334 | 0.0279

Target | log2 mean competition ratio ([1]; 50 µM) | log2 mean competition ratio ([1]; 200 µM) | log2 mean competition ratio ([2]; 50 µM) | log2 mean competition ratio ([2]; 200 µM)
NBN C478 (UniProt O60934) | – | – | -0.113 | 0.325
NCAPD3 C330 (UniProt P42695) | – | – | -0.388 | 0.313
NKX2-5 C114 | – | – | 0.505 | 0.327
NOM1 C332 (UniProt Q5C9Z4) | – | – | -0.0751 | 0.0137
NFATC1 C533 (UniProt O95644) | – | – | 0.212 | -0.00639
NCAPG C509 (UniProt Q9BPX3) | – | – | -0.131 | -0.0988
NBEA C2007 (UniProt Q8NFP9) | – | – | 0.109 | -0.183
NCAPG C202 (UniProt Q9BPX3) | – | – | 0.0821 | 0.189
NKTR C738 (UniProt P30414) | – | – | -0.0118 | 0.000625
NOSIP C185 (UniProt Q9Y314) | – | – | -0.0781 | 0.0553
NBEA C315 (UniProt Q8NFP9) | – | – | 0.123 | -0.47
NCOA2 C22 (UniProt Q15596) | – | – | -0.509 | -0.0883
NCBP1 C36 (UniProt Q09161) | – | – | -0.443 | 0.26
NFX1 C1067 (UniProt Q12986) | – | – | -0.252 | -0.106
NIF3L1 C213 (UniProt Q9GZT8) | – | – | 0.174 | -0.139
NELFB C23 (UniProt Q8WX92) | – | – | -0.0203 | -0.159
NOMO3;NOMO2 C788;(C788) | – | – | -0.185 | -0.167
NIPBL C1754 (UniProt Q6KC79) | – | – | 0.171 | 0.685
NFXL1 C539 (UniProt Q6ZNB6) | – | – | -0.262 | 0.0149
NELFA_(C131,C131,C141,C141) (UniProt Q9H3P2) | – | – | 0.255 | 0.354
NCBP1 C320 (UniProt Q09161) | – | – | -0.317 | -0.0127
NEU3 C90 (UniProt Q9UQ49) | – | – | 0.0727 | -0.0604
NIN C647 (UniProt Q8N4C6) | – | – | -0.00565 | 0.141
NAV1 C337 (UniProt Q8NEY1) | – | – | -0.000841 | 0.269
NHP2 C18 (UniProt Q9NX24) | – | – | -0.545 | -0.104

Whole records from above. Values in the order: log2 mean competition ratio ([1]; 50 µM)	log2 mean competition ratio ([1]; 200 µM)	log2 mean competition ratio ([2]; 50 µM)	log2 mean competition ratio ([2]; 200 µM)
NOMO3;NOMO2 C788;(C788) as listed: –	–	-0.185	-0.167
NCAPG C202 (UniProt Q9BPX3) as listed: –	–	0.0821	0.189
NCAPD3 C330 (UniProt P42695) as listed: –	–	-0.388	0.313
NOM1 C332 (UniProt Q5C9Z4) as listed: –	–	-0.0751	0.0137
